Drawing on publication PMC6056937, this text covers binding for 1 substance.

Sequences of proteins named here, by UniProt entry; tags and fusion partners are left off.
UniProt P28482: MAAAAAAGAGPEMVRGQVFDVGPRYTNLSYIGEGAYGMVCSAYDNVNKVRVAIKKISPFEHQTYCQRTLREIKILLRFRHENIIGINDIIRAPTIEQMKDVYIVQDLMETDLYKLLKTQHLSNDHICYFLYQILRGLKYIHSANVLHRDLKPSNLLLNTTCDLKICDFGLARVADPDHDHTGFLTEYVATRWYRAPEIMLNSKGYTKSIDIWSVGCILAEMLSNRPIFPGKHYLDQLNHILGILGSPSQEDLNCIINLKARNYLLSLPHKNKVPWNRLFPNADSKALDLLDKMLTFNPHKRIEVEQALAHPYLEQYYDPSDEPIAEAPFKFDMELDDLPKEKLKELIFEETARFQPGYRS
UniProt P37802: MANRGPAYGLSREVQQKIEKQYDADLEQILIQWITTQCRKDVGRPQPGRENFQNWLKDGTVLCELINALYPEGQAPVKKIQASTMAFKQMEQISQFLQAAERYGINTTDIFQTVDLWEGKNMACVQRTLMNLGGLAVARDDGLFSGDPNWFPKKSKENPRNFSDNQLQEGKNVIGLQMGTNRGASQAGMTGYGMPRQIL

These are yes or no findings as the source states them, for the method shown. Binding seen in cells or lysates may run through a third protein. Some results given as binding are weak or reduced against the parent protein; the word gives no strength.

This assay has as its target Flag-tagged ERK2 (UniProt P28482). The experiment in a line: co-IP; HEK293T cells co-transfected with GFP-transgelin-2 (wild-type or 29–31 aa truncated) and Flag-ERK2 for 48 h; immunoprecipitation by anti-Flag antibody, blot with anti-GFP antibody.

On to “GFP-tagged transgelin-2, wild-type (from UniProt P37802 1-199)”, for which the binding result is given as “binds”.
